Data: patent US20260000728A1, “PEPTIDE HAVING ACE INHIBITORY ACTIVITY AND COMPOSITION CONTAINING THE SAME” (Vedan International (Holdings) Limited, priority 2024, published 2026)
Some results were stated once for a whole list of compounds, not compound by compound.

Test system: Spontaneously hypertensive rats (SHR)
Assay: Animal Test (2): 8-week feeding, weekly blood pressure in SHR
Format: in vivo, rat
Conditions: PC group, 1 mg/kg, starting from week 2
Method: Six-week-old spontaneously hypertensive rats (SHR) were divided into 5 groups, each receiving the corresponding treatment stated below: • Negative control group (NC group): feeding with water • Positive control group (PC group): feeding with hypertension drug Captopril at 1 mg/kg • Low-dose group (L group): feeding with the peptide composition disclosed herein at a dose of 50 mg/kg • Medium-dose group (M group): feeding with the peptide composition disclosed herein at a dose of 100 mg/kg • High-dose group (H group): feeding with the peptide composition disclosed herein at a dose of 200 mg/kg
The experiment lasted for a total of 8 weeks.

## C[C@H](CS)C(=O)N1CCC[C@H]1C(=O)O [Captopril]
  differences between systolic blood pressures and those of the NC group: greater than or equal to 20 mmHg
